Reference: PMC6824560, “Insight into the relationship between aryl-hydrocarbon receptor and β-catenin in human colon cancer cells” (PLoS ONE, 2019)
Results are given in words; binding and its absence hold for the method and conditions named. Some results given as binding are weak or reduced against the parent protein; the word gives no strength.

The chains behind the UniProt entries cited, without tags or fusion partners. Where a name states a change or a piece, a line headed by the entry shows the natural chain unless it says otherwise.
UniProt P35222: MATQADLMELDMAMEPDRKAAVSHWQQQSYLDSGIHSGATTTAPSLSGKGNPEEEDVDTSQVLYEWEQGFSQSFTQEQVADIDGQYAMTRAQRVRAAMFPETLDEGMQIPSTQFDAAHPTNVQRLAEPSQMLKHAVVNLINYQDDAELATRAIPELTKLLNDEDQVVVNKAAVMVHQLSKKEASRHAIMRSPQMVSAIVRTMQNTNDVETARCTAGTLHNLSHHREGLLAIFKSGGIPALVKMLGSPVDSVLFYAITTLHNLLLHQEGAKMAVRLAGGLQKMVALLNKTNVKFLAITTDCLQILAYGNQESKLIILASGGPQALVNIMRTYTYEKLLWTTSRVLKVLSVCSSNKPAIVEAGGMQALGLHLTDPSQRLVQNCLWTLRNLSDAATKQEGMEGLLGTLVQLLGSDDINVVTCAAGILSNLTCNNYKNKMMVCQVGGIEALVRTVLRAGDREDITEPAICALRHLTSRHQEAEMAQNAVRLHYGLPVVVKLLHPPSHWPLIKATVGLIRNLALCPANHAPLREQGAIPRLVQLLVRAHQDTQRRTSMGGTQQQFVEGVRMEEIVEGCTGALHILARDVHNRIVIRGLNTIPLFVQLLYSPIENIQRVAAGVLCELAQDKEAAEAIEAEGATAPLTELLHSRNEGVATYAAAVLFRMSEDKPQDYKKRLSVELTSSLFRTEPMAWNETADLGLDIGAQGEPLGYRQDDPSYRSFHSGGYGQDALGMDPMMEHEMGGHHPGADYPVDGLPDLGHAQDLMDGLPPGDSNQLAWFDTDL
UniProt Q13620: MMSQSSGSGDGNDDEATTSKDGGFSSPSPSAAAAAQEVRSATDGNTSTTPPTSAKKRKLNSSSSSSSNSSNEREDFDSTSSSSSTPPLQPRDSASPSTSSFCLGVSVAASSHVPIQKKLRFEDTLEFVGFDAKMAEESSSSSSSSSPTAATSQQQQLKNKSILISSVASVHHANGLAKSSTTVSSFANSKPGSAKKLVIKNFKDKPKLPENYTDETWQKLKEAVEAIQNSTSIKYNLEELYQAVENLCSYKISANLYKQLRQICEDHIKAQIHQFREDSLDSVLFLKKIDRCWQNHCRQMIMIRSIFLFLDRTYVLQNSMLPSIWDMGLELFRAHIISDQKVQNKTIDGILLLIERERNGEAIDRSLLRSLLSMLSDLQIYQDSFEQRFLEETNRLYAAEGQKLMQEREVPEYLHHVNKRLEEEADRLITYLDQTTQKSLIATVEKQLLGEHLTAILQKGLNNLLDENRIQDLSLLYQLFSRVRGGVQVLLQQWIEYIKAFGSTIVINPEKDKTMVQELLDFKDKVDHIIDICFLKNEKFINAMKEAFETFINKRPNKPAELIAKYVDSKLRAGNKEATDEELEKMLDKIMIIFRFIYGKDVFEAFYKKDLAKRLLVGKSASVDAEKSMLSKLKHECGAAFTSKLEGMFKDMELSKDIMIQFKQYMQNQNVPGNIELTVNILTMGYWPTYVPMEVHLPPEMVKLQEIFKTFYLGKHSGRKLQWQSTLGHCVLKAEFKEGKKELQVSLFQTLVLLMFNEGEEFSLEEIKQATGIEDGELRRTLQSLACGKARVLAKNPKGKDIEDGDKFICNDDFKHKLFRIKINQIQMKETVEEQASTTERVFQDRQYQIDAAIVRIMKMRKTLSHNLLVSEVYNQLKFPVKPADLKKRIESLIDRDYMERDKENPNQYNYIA
UniProt P27540: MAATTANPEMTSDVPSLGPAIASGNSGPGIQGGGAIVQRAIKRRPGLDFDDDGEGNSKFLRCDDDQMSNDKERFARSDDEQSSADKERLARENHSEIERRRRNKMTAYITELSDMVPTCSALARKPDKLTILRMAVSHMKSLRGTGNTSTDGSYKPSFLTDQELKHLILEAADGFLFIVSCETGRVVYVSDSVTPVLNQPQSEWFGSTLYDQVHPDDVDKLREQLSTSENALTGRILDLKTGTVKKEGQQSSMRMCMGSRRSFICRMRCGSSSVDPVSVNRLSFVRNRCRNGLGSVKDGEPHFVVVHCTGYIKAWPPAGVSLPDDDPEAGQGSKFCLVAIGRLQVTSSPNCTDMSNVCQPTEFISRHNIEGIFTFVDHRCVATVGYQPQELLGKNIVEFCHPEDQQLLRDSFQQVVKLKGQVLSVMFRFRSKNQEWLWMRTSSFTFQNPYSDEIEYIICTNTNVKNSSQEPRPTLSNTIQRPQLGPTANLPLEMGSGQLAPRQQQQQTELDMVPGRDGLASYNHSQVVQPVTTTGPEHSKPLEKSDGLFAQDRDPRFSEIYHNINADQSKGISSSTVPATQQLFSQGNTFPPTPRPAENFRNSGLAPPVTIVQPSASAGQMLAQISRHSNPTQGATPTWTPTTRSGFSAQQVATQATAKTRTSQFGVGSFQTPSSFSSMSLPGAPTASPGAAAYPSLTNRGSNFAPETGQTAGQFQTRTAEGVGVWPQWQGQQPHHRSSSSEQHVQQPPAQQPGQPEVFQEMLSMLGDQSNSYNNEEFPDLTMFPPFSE

Columns and labels:
[1] = biological target: human AhR fused to Gal4 DNA-binding domain in pGBKT7 (human) (UniProt P35869); assay: two-hybrid; yeast two-hybrid in strain Y187, pGADT7 and pGBKT7 fusions, 1 μM 3MC or 0.1% DMSO for 12 h at 30°C, β-galactosidase read-out (o-nitrophenol-β-D-galactopyranoside); DDB1 or CUL4B co-expressed from pESC in some samples
[2] = biological target: S37A mutant of β-catenin fused with the GAL4 DNA-binding domain (human) (UniProt P35222); assay: two-hybrid; mammalian two-hybrid in HeLa cells, pBIND (Gal4 DNA-binding domain) and pACT (VP16 activation domain) fusions, pG5Luc reporter, 3MC (1 µM) or DMSO (0.1%) for 16 h
[3] = biological target: human CUL4B fused to Gal4 DNA-binding domain in pGBKT7 (human) (UniProt Q13620); assay: two-hybrid; yeast two-hybrid in strain Y187, pGADT7 and pGBKT7 fusions, 1 μM 3MC or 0.1% DMSO for 12 h at 30°C, β-galactosidase read-out (o-nitrophenol-β-D-galactopyranoside); DDB1 or CUL4B co-expressed from pESC in some samples

binding [1] | Molecule | further results
no binding | CUL4B fused with the Gal4 activating domain (from UniProt Q13620 1-913) | –
binds | human Arnt fused to Gal4 activating domain in pGADT7 (from UniProt P27540 1-789) | –
– | human CUL4B fused to VP16 activation domain in pACT vector (from UniProt Q13620 1-913) | binding [2]: no binding
no binding | human β-catenin fused to Gal4 activating domain in pGADT7 (from UniProt P35222 1-781) | –
– | human AhR fused to Gal4 activating domain in pGADT7 (natural protein, UniProt P35869 1-848, looked up, aryl-hydrocarbon receptor (AhR), human cDNA; also called pGAD-AhR; aryl-hydrocarbon receptor; source: yeast two-hybrid fusion, yeast strain Y187) MNSSSANITYASRKRRKPVQKTVKPIPAEGIKSNPSKRHRDRLNTELDRLASLLPFPQDVINKLDKLSVLRLSVSYLRAKSFFDVALKSSPTERNGGQDNCRAANFREGLNLQEGEFLLQALNGFVLVVTTDALVFYASSTIQDYLGFQQSDVIHQSVYELIHTEDRAEFQRQLHWALNPSQCTESGQGIEEATGLPQTVVCYNPDQIPPENSPLMERCFICRLRCLLDNSSGFLAMNFQGKLKYLHGQKKKGKDGSILPPQLALFAIATPLQPPSILEIRTKNFIFRTKHKLDFTPIGCDAKGRIVLGYTEAELCTRGSGYQFIHAADMLYCAESHIRMIKTGESGMIVFRLLTKNNRWTWVQSNARLLYKNGRPDYIIVTQRPLTDEEGTEHLRKRNTKLPFMFTTGEAVLYEATNPFPAIMDPLPLRTKNGTSGKDSATTSTLSKDSLNPSSLLAAMMQQDESIYLYPASSTSSTAPFENNFFNESMNECRNWQDNTAPMGNDTILKHEQIDQPQDVNSFAGGHPGLFQDSKNSDLYSIMKNLGIDFEDIRHMQNEKFFRNDFSGEVDFRDIDLTDEILTYVQDSLSKSPFIPSDYQQQQSLALNSSCMVQEHLHLEQQQQHHQKQVVVEPQQQLCQKMKHMQVNGMFENWNSNQFVPFNCPQQDPQQYNVFTDLHGISQEFPYKSEMDSMPYTQNFISCNQPVLPQHSKCTELDYPMGSFEPSPYPTTSSLEDFVTCLQLPENQKHGLNPQSAIITPQTCYAGAVSMYQCQPEPQHTHVGQMQYNPVLPGQQAFLNKFQNGVLNETYPAELNNINNTQTTTHLQPLHHPSEARPFPDLTSSGFL | binding [3]: no binding
